## Screening data, single-dose tests

Protein sequences, listed by entry. Tags and fused reporters are not part of them.
UniProt P9WFT3, whole entry: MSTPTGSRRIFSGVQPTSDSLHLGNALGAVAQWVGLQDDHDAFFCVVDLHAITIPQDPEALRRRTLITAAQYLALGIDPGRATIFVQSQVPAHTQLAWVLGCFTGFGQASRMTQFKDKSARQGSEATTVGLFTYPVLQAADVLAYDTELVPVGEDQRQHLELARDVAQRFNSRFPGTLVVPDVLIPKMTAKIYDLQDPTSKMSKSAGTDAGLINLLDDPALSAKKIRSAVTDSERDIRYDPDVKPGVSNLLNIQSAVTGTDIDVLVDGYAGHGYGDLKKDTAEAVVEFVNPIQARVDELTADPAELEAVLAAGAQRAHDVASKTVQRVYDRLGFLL
UniProt I6X8D2, whole entry: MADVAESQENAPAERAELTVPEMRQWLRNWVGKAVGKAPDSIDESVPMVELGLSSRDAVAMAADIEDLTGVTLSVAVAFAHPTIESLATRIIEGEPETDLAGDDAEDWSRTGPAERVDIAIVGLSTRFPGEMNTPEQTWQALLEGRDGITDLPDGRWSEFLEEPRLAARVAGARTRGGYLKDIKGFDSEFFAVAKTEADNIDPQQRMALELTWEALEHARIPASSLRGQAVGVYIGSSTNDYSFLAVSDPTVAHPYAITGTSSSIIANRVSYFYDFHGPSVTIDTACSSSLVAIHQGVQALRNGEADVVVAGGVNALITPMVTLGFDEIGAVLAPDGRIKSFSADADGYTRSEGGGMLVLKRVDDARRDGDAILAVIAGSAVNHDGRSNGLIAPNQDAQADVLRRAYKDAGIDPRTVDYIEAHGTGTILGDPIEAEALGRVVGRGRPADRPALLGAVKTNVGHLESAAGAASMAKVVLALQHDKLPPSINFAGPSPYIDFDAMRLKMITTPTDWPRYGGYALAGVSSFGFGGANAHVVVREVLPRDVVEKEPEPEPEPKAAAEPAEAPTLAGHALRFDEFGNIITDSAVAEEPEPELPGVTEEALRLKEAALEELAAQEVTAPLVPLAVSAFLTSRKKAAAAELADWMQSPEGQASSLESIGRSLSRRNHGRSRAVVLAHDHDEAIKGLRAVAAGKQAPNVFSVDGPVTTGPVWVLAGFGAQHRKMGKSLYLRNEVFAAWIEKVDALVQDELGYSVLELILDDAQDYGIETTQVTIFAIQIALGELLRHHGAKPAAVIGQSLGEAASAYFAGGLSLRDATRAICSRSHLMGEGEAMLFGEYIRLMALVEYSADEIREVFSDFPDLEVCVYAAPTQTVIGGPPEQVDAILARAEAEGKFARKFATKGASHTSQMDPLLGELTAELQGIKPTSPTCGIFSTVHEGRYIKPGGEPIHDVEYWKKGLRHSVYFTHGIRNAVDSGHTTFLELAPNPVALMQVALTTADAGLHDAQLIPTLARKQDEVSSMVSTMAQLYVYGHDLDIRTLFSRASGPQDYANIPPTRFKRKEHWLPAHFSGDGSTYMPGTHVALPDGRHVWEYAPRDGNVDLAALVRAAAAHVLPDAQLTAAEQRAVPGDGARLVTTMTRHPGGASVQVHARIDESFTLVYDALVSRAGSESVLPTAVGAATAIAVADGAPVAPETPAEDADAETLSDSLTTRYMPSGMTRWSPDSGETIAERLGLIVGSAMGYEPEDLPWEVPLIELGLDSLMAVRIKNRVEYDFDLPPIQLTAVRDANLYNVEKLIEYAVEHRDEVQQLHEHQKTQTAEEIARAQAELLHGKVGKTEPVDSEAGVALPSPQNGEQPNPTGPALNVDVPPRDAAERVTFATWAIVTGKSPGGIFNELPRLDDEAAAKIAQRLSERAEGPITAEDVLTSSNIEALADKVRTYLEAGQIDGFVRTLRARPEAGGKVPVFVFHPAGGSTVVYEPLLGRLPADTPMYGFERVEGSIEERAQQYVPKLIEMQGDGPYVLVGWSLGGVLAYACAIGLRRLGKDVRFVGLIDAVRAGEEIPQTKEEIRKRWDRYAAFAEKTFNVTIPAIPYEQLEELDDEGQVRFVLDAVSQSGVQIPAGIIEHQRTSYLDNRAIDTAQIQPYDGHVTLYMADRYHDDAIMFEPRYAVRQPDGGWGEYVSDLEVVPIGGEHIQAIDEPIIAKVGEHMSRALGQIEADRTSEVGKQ

The filed quantity is “Percent Effect” (%). The record does not define 0% and 100%; most values in the screen are far below 50% and negative numbers occur (in some assays of this library far below -100). The compounds are a random part of those screened.

MtTrpRS: 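Tryptophan-tRNA ligase, Mycobacterium tuberculosis (UniProt P9WFT3). Enzyme assay of tryptophanyl-tRNA synthetase; the read-out is not stated. Compounds at 10 µM. Direction is not recorded; retested compounds ran higher, which suggests that high means inhibition. Of about 65,000 compounds tested this way, about 64 (0.098%) reached 50% or more in at least one test.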
Pks13 thioesterase: 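Polyketide synthase Pks13, Mycobacterium tuberculosis (UniProt I6X8D2). Enzyme assay of the thioesterase domain of polyketide synthase 13; the read-out is not stated. Compounds at 30 µM. Higher reads as stronger inhibition (inferred from which compounds were picked for retests). Of about 67,000 compounds tested this way, about 300 (0.46%) reached 50% or more in at least one test.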

structure: CCc1nc(CN2CCN(C(=O)c3cnccn3)CC2)cs1
MtTrpRS: -2.43%
Pks13 thioesterase: -6.304%

structure: Cc1ccc(CN(Cc2nc3c(cnn3C)c(=O)[nH]2)C2CC2)o1
MtTrpRS: -5.161%
Pks13 thioesterase: -14.01%

structure: CC1Cn2c(nc3c2c(=O)[nH]c(=O)n3C)O1 (stereo not drawn)
MtTrpRS: 0.4147%
Pks13 thioesterase: -19.16%

structure: O=C(C1CC1)N1C[C@@H](F)[C@@H](OCc2nc3cc(F)ccc3[nH]2)C1
MtTrpRS: 1.593%

structure: CN(Cc1cnn(C)c1)C1CCCN(Cc2noc(C3CC3)n2)C1 (stereo not drawn)
MtTrpRS: 1.671%
Pks13 thioesterase: 7.731%

structure: Cn1ccc(C(=O)N2CCCC(n3cncn3)C2)cc1=O (stereo not drawn)
MtTrpRS: 2.58%
Pks13 thioesterase: -19.55%

structure: CNC(=O)C1CCCN(C(=O)NCCC2Cc3ccccc3C2)C1 (stereo not drawn)
MtTrpRS: 2.614%
Pks13 thioesterase: 3.337%

structure: c1csc(-c2noc(C3CNC3)n2)c1
MtTrpRS: 2.413%
Pks13 thioesterase: -16.06%

structure: Cc1cccc(CN2CCN(C(=O)c3cc(C4CC4)[nH]n3)CC2)c1
MtTrpRS: -2.804%
Pks13 thioesterase: 10.93%

structure: Cc1ccc(NC2CCN(C(=O)c3cccc4ncccc34)CC2)nn1
MtTrpRS: 3.463%
Pks13 thioesterase: -8.292%

structure: CCN(CC1CN(Cc2nc(C3CC3)no2)CCO1)c1cccnn1 (stereo not drawn)
MtTrpRS: -0.5069%
Pks13 thioesterase: -4.604%

structure: CC(C)Cn1ccnc1CNC(=O)N1CCCC1CN1CCOCC1 (stereo not drawn)
MtTrpRS: -3.17%
Pks13 thioesterase: -37.13%

structure: O=c1[nH]cnc2c1CCN(S(=O)(=O)c1ccc(Cl)cc1)C2
MtTrpRS: 2.496%
Pks13 thioesterase: -1.27%

structure: Cn1cccc1-c1cc(C(=O)NCCc2nnc(N)s2)[nH]n1
MtTrpRS: -2.086%
Pks13 thioesterase: -10.97%

structure: CNC(=O)NCC(CO)Cc1ccccc1OC(F)(F)F (stereo not drawn)
MtTrpRS: -2.395%
Pks13 thioesterase: -1.608%

structure: Cc1cnc(C)c(-c2cc(O)c3c(c2)CN(c2nccs2)CCO3)n1
MtTrpRS: -4.342%
Pks13 thioesterase: -5.979%

structure: CCN(c1cccc(F)c1)S(=O)(=O)c1cc(C(=O)O)cc2c1CCC2
MtTrpRS: 6.605%
Pks13 thioesterase: -48.55%

structure: Cc1nc(CN2CCC3(CCCN(Cc4ccoc4)C3)C2=O)cs1 (stereo not drawn)
MtTrpRS: -1.152%
Pks13 thioesterase: -5.811%

structure: CCOc1cc(C(=O)NS(=O)(=O)c2cccc(C#N)c2)ccc1OC
MtTrpRS: -11.23%
Pks13 thioesterase: -8.84%

structure: CCNC(=O)NC(=O)CNC(C)(C)c1ccc2c(c1)OCCO2
MtTrpRS: -4.172%
Pks13 thioesterase: -7.272%

structure: COc1cc(C)nc(N2CCN(C(=O)c3ccoc3C)CC2)n1
MtTrpRS: -4.802%
Pks13 thioesterase: -4.682%

structure: Cn1nc(C2CCCN(Cc3ccccc3)C2)c2nccnc21 (stereo not drawn)
Pks13 thioesterase: 3.085%

structure: CCc1cc(NCCNC(C)=O)nc(N2CCCC2)n1
MtTrpRS: 14.04%
Pks13 thioesterase: 4.279%

structure: COC1(CNC(=O)c2ccsc2)CCSC1 (stereo not drawn)
MtTrpRS: 1.93%
Pks13 thioesterase: 4.707%

structure: Cc1nn(-c2ncnc3[nH]cnc23)c2c1C(C(C)C)CC(=O)N2 (stereo not drawn)
MtTrpRS: 0.89%
Pks13 thioesterase: -11.48%

structure: c1coc(CN2CCn3c(CN4CCOCC4)nnc3C2)c1
MtTrpRS: -2.013%
Pks13 thioesterase: -31.2%

structure: CN(C(=O)c1cccnc1OCC(F)F)c1ccc2c(c1)CCO2
MtTrpRS: -0.6053%
Pks13 thioesterase: -21.28%

structure: O=C(NCC1(Sc2ccccc2)CC1)c1c[nH]nn1
MtTrpRS: 3.456%
Pks13 thioesterase: -54.88%

structure: O=C(NCC1CCCO1)c1ccc(S(=O)(=O)NCCc2cn[nH]c2)cc1 (stereo not drawn)
MtTrpRS: -1.127%
Pks13 thioesterase: 3.15%

structure: O=C(N[C@@H]1c2ccccc2C[C@@H]1O)C1CCN(Cc2ccco2)CC1
MtTrpRS: -6.221%
Pks13 thioesterase: -5.18%

structure: CS(=O)(=O)NC1CCN(C(=O)CCC2CCCO2)CC1 (stereo not drawn)
MtTrpRS: 0.5201%
Pks13 thioesterase: -4.699%

structure: Cc1nc[nH]c1CN1CCCn2nc(CN3CCC(F)(F)CC3)cc2C1
MtTrpRS: 1.221%
Pks13 thioesterase: -20.01%

structure: COc1cccc(CN2CCCC(Nc3cccc(F)c3)C2)c1O (stereo not drawn)
MtTrpRS: 2.012%
Pks13 thioesterase: -29.19%

structure: O=C(NC1CCN(Cc2ccc(F)cc2)CC1)c1ccc2c(c1)CCC2
MtTrpRS: -2.714%
Pks13 thioesterase: -35.17%

structure: Cc1c(C(=O)NCC2CCCO2)nnn1-c1cccc2c1CCN(C)C2 (stereo not drawn)
MtTrpRS: 17.48%
Pks13 thioesterase: -27.54%

structure: CN(CC1CCN(CCO)CC1)CC(O)c1ccc(F)cc1 (stereo not drawn)
MtTrpRS: -5.993%
Pks13 thioesterase: -16.72%

structure: CCn1cnnc1CNC(=O)N1CCCCCC1
MtTrpRS: -4.514%
Pks13 thioesterase: -9.193%

structure: Cc1ccc(C(=O)Nc2nnc(CC(C)C)s2)c(-n2cnnn2)c1C
MtTrpRS: 2.006%
Pks13 thioesterase: -11.53%

structure: CS(=O)(=O)N1CCCCCC1C1CCN(c2ncccn2)CC1 (stereo not drawn)
MtTrpRS: 0.7862%
Pks13 thioesterase: -5.045%

structure: O=C(c1ccc(S(=O)(=O)NCC(F)F)cc1)N1C[C@H]2CNC[C@H]2C1
MtTrpRS: -0.9226%
Pks13 thioesterase: -20.86%

structure: CCC(=O)N1CCCC1c1nc(N(C)C)ncc1-c1ccc(Cl)cc1 (stereo not drawn)
MtTrpRS: -4.552%
Pks13 thioesterase: 3.689%

structure: CC1CCCN(c2ncc(-c3ccccc3F)c(-c3nccn3C)n2)C1 (stereo not drawn)
MtTrpRS: -1.501%
Pks13 thioesterase: 6.045%

structure: CN(CCN1CCCCCC1)c1nccc(N2CCC(O)C2)n1 (stereo not drawn)
MtTrpRS: -2.974%
Pks13 thioesterase: 12.96%

structure: CCN(Cc1nc(C(C)C)no1)Cc1cccs1
MtTrpRS: 1.74%
Pks13 thioesterase: -8.727%

structure: O=C(CCc1ccco1)Nc1cccc(S(=O)(=O)C(F)F)c1
MtTrpRS: -3.488%
Pks13 thioesterase: -10.96%

Some entries from above, unchanged:

* O=C(NCC1CCCO1)c1ccc(S(=O)(=O)NCCc2cn[nH]c2)cc1 (stereo not drawn) | MtTrpRS: -1.127%; Pks13 thioesterase: 3.15%
* Cc1nc[nH]c1CN1CCCn2nc(CN3CCC(F)(F)CC3)cc2C1 | MtTrpRS: 1.221%; Pks13 thioesterase: -20.01%

The values are deposited in ChEMBL (CHEMBL3988442, “University of Dundee, Small-Polar-MMV Screening Library” (2021)).